# Source: PubChem BioAssay AID1508600 (Functional Genomics Laboratory (NCATS/FGL), 2020)
# The whole screen tested about 53,000 sequences, of which about 3,700 (7%) were called active.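 The calls were made as follows: active = gene knockdowns whose robust z-score for IL-1 alpha signal is at least 2 or at most -2, so actives lie on both sides; inactive = the rest.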 The list shows a part of the results.
# Assay: Components of the Cytosolic LPS Sensing Pathway: Gene Identification via Genome-wide siRNA Screen;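 also: robust z of the log signal after scaling to non-targeting control siRNA wells of the plate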
# Conditions: RAW264.7 macrophages, IL-1a HTRF, actives lie on both sides, screened at 100 nM (by protocol), cells primed 5 h with Pam3CSK4 first
# Summary of the method: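 RAW264.7; siRNA 100 nM final, RNAiMAX, 48h 37 degrees C; Pam3CSK4 5 h; LipidA + TransIT-TKO 24 h; IL-1a HTRF; CellTiter-Glo viability; robust z vs negative-control median.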
row,Sequence,z-score
1,GGAAUCUCCAUUUGUAUUGTT against Calml3,inactive: 0.0364
2,GGAUCACUUGAUUGAUCCUTT against Slc15a3,inactive: -0.292
3,GCAAACUGCGCAGUUCUUGTT against Gad1,inactive: 1.33
4,GGAAAAUGGAGAACUAAAGTT against Uxs1,inactive: 1.88
5,CGAUGAUACAGUUUAUCUCTT against Pon2,inactive: -0.766
6,GGAUGAGGAUUUUGAGAACTT against Arhgef1,inactive: 0.132
7,GCCUGAACAGCCUUGAAUUTT against Hhatl,inactive: 0.702
8,GCCAGUGUGACAUUUGGUATT against Eed,inactive: 0.651
9,GGAGCAUCCUGGCAAACAGTT against Slc51b,inactive: -1.32
10,GUGCACGAUCUGAUUGGUGTT against Pfn3,inactive: -0.744
11,GGAGAAAAAGCACCAAUGUTT against Plag1,inactive: 0.821
12,GGUUUCAUCUGUUGGAAUUTT against Meis1,inactive: 0.5
13,GCACCUAACAAGUACUAAATT against Mob4,inactive: 1.14
14,GGCAGCAGCAACAGCAGAATT against Slc36a3,inactive: -0.678
15,GCAAAUUCCAGUGAAAGCCTT against Papola,inactive: 1.12
16,GGAUUUUGAAGAGGAGUCGTT against Mpp3,inactive: -1.23
17,GGAAUUCAUCCACAUACUGTT against Actr10,inactive: 1.08
18,GGAUGUAUUUUGGAGAACGTT against Fam241a,inactive: 0.158
19,GGUGAAGGCCUCCAUAUAUTT against 9330175E14Rik,inactive: 1.07
20,GGCUUCGACGUGACUCAUCTT against Tcte2,inactive: -0.906
21,GGGAAAACACAAAGAAGAATT against Angpt1,inactive: 0.307
22,GGAGCUCCUUAUGAAACUGTT against Tsfm,inactive: -0.375
23,CGAGAAUUUUACAUGAGAGTT against Mthfd1l,inactive: -0.632

row,Sequence,z-score
1,GUCAAGCUGGCCAAACAUATT against Rps19,inactive: -0.437
2,CCUCUACAUAUUAUGGAAATT against Dpp9,inactive: 0.0926
3,CCAAUAUGAGACCAUCAUUTT against Sv2b,inactive: 0.385
4,GGAAGCACGUUGGAAGGAUTT against Olfr845,inactive: 0.461
5,GCAGGUUUGUAUUGUAACUTT against Abi1,inactive: -0.302
6,GGAAUGCCGGAUUGCUCACTT against Fam76a,inactive: 1.2
7,GGCCAUGUUCCACACAUUATT against Grm1,inactive: 1.49
8,CCACAUCCCACGGGAUCUUTT against Fam178b,inactive: 0.122
9,GGAAUCACAAGGUAUUUUCTT against Spo11,inactive: -0.237
10,CGAAUUUACAAAGAACUUGTT against Cldn34b3,inactive: -0.487
11,CGCACCUUUCUUUGGAAUGTT against Rab1b,inactive: 1.72
12,GGCCAAACAGCCAAAUUCUTT against Rps23,inactive: 0.402
13,GACAAGAAGCAGAUGACUGTT against Olig2,inactive: -0.142
14,GGAAUGAUUUUUGUUUGCUTT against Sf3b3,inactive: -1.6
15,GGAAGCUGUGGAGAAACUATT against Acox2,active: 2.22
16,CCUGAAAAAAUUUAUCGCCTT against Pcgf3,inactive: -0.363
17,GGUGCUGGAGUUGACCAGUTT against Cebpa,inactive: -0.0905
18,GCGUAAAUAAGUGUCAGAATT against Emp2,inactive: 0.295
19,GCAGAUGUGGCAUCUUCCATT against Arhgap35,inactive: -0.642
20,GGCAUAGCUGGUCUGAAGATT against Slc3a2,active: 2.06
21,GGCUAUGGAGUUCACCACATT against Krtap5-5,active: -2.66
22,GCCAGGUCCUCAAAUGAAATT against Vps37d,inactive: 0.0635
23,GCUACAAAUGUGUACCCUUTT against Il34,inactive: -1.05

# Looked up above:
# For z-score, GGAAAAUGGAGAACUAAAGTT against Uxs1 is entered as inactive: 1.88
# For z-score, CGAGAAUUUUACAUGAGAGTT against Mthfd1l is entered as inactive: -0.632
# For z-score, GCGUAAAUAAGUGUCAGAATT against Emp2 is entered as inactive: 0.295
# For z-score, CCAAUAUGAGACCAUCAUUTT against Sv2b is entered as inactive: 0.385

# Additional records.

row,Sequence,z-score
1,GGAAGAGGACACAUUAGGCTT against Gtsf1l,inactive: 0.11
2,GGAAAAAAUAAUGGUGACATT against Fcrls,inactive: -0.352
3,GGAGCAGCUGUCCAUCAAUTT against Sart3,inactive: 0.632
4,GGAAAUUACCUUGAUGAUGTT against Anxa4,inactive: -1.59
5,GCUCAACCAGUGUUAAAACTT against F2rl1,inactive: -0.371
6,GCGGGACAUAUGAAUCUACTT against Il23a,inactive: 1.13
7,GCAGUUCAUACUCUCUGCATT against Olfr919,inactive: -0.958
8,CGUGAAUCACUAUACAUAATT against A630052C17Rik,inactive: -1.39
9,CCUGGUAACAGUCAUAAAUTT against Lhfpl2,inactive: -0.0371
10,CGGUCUCUUCCUAAGUAAUTT against Cad,inactive: 0.00666
11,GGAUAAACCUAUGAAUGAATT against Hsf3,inactive: 0.763
12,CCAUGUGAUAUAAAGAGGATT against Apbb2,inactive: -0.935
13,GGAGAAACCAGGAUCUAUUTT against Rnf14,active: 2.22
14,GGCUGCAUAAAAGCAUUAATT against Aldh1a1,inactive: -1.24
15,GGACUCAUAUCCUUACAUATT against AI854703,inactive: -0.0584
16,CCAAUCCUGAAUAAUGAGATT against Spag17,inactive: 0.0419
17,GCUACGUUACUAGGCAGUGTT against Mapk8ip2,inactive: 1.44
18,CCUAUGCUGAAAUUCUUGATT against Ndufc2,inactive: 0.0388
19,GCUCUAUUGUCUGGUAUUGTT against Vmn2r81,inactive: 0.441
20,GGAUAUGCCAGAGACACUGTT against Carf,inactive: -0.118
21,CACUCAAAGUUAUAUCAAGTT against Nlrp4e,inactive: 1.27
22,GGCACGAUUUGCUUAUUUUTT against Usf2,inactive: 0.0682
